From the supplement of paper PMC7666118
The other results are listed elsewhere or left out.

Chains of the proteins cited; added tags and fusions are not shown. Lines headed by an entry give the natural chain unless they say otherwise; changes in a name come on top.
UniProt Q15334: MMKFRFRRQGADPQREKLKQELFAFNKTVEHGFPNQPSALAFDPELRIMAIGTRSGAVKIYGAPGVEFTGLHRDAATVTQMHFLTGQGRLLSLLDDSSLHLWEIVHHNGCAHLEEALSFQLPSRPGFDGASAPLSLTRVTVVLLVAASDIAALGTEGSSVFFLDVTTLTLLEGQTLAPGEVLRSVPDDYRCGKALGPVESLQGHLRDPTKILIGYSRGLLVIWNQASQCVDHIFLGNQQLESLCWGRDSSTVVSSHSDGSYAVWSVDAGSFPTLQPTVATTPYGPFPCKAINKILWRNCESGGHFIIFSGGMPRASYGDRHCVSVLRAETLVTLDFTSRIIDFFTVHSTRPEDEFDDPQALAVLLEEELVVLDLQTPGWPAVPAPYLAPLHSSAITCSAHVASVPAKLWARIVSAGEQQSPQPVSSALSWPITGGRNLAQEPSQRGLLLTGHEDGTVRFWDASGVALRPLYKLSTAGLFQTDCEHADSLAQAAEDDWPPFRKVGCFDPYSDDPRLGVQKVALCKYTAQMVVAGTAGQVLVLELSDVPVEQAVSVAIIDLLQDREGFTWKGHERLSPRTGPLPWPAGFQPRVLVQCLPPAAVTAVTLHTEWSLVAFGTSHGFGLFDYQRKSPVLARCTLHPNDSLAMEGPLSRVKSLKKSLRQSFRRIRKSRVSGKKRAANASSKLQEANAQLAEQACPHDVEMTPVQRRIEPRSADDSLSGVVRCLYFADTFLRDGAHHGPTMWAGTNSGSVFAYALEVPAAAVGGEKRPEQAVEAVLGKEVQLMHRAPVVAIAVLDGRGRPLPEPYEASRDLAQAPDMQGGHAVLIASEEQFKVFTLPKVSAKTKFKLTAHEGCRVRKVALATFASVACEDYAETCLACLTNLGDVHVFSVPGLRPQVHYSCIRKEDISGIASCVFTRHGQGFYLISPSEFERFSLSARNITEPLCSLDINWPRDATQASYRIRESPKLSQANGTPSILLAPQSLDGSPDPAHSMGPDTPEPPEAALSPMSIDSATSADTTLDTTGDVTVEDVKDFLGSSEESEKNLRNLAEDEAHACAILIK
UniProt P36776: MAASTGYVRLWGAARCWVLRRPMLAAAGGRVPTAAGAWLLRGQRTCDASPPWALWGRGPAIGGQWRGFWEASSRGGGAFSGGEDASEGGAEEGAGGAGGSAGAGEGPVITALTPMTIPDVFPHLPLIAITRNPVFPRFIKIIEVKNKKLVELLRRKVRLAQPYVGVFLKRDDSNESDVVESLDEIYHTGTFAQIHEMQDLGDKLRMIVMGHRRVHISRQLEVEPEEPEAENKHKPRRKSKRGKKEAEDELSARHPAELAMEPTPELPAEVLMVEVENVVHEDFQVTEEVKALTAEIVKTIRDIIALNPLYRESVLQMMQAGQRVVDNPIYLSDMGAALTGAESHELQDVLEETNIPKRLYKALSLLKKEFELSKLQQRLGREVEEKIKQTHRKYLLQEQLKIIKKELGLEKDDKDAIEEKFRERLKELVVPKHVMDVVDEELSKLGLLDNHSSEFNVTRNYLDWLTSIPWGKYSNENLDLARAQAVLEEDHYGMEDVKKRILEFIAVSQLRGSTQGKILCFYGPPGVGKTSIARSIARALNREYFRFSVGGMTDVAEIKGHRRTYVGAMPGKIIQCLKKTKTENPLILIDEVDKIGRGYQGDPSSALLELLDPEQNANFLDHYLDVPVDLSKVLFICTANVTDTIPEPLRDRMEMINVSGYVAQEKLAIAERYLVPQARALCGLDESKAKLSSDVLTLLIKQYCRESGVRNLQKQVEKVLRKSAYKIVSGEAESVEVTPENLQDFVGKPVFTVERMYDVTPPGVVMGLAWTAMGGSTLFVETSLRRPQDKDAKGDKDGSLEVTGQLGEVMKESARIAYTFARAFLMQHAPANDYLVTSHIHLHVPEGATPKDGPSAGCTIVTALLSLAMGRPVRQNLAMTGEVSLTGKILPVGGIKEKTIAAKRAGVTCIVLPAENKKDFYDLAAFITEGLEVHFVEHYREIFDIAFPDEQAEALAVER
UniProt P20645: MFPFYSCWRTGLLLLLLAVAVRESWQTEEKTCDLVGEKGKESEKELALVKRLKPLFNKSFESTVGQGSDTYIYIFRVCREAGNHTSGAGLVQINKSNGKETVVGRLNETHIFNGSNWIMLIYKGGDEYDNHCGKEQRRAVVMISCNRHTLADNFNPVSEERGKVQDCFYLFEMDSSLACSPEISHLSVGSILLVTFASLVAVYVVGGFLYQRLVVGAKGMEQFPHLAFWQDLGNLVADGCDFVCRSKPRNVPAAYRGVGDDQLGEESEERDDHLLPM
UniProt Q9Y2L5: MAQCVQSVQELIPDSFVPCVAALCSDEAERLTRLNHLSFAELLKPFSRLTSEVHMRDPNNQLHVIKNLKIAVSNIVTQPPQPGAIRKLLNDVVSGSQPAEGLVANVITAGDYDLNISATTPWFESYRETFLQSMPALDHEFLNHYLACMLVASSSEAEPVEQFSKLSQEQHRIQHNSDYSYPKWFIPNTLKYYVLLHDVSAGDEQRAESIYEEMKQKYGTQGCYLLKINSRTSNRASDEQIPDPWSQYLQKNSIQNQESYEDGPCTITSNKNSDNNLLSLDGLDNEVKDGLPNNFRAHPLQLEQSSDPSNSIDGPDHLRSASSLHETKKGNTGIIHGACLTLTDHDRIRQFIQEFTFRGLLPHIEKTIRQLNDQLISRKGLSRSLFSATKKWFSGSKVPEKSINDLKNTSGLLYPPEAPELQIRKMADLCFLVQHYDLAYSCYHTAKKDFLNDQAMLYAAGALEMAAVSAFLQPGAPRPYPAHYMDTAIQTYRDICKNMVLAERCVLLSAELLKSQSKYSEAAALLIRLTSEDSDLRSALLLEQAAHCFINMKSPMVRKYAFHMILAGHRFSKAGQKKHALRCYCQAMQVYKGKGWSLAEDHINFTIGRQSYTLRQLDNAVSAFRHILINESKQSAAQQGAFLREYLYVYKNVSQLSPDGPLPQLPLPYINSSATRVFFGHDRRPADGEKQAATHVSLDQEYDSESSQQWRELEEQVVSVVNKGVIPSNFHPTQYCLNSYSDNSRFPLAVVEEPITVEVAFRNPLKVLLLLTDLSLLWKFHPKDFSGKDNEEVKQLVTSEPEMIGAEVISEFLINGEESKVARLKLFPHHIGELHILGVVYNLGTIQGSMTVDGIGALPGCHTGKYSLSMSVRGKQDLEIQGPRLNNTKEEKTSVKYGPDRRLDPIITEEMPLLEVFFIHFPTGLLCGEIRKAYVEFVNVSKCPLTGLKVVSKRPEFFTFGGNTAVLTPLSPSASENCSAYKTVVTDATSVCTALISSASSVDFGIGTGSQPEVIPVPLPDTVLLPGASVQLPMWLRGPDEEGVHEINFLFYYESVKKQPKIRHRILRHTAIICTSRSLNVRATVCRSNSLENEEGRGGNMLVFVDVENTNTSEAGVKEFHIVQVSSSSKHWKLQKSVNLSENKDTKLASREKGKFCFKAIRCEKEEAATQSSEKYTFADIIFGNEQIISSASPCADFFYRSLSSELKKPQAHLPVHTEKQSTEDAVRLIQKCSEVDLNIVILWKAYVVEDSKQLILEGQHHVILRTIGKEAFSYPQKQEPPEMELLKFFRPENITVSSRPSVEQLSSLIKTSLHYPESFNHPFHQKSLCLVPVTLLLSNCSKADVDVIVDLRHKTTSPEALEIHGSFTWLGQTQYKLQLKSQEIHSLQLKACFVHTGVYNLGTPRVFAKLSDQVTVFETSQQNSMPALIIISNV
UniProt Q92585: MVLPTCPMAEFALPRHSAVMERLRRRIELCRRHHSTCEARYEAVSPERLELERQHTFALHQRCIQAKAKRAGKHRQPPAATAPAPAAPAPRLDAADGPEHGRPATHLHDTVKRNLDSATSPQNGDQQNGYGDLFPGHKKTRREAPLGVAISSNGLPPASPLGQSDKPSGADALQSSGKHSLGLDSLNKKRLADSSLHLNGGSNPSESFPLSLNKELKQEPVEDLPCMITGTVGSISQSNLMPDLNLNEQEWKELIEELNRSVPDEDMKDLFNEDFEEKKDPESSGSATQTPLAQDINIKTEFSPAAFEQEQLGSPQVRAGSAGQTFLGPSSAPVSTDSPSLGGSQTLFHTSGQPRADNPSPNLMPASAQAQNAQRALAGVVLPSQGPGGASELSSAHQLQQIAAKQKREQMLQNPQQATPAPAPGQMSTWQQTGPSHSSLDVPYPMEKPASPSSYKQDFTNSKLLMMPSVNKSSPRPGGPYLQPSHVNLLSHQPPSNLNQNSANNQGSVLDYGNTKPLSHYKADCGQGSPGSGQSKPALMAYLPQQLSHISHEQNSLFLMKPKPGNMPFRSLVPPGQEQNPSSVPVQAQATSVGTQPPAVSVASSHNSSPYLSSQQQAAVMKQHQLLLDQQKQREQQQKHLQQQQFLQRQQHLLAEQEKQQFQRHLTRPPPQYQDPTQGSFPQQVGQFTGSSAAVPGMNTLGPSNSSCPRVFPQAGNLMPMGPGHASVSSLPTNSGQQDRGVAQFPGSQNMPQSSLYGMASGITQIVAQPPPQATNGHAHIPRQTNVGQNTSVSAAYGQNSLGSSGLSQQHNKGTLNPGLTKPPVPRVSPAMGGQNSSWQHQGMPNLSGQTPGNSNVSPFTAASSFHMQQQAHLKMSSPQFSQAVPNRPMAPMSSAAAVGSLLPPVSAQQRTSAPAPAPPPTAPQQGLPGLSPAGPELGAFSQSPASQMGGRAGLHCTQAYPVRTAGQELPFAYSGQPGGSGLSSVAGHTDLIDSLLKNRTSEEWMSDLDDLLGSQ
UniProt Q16706: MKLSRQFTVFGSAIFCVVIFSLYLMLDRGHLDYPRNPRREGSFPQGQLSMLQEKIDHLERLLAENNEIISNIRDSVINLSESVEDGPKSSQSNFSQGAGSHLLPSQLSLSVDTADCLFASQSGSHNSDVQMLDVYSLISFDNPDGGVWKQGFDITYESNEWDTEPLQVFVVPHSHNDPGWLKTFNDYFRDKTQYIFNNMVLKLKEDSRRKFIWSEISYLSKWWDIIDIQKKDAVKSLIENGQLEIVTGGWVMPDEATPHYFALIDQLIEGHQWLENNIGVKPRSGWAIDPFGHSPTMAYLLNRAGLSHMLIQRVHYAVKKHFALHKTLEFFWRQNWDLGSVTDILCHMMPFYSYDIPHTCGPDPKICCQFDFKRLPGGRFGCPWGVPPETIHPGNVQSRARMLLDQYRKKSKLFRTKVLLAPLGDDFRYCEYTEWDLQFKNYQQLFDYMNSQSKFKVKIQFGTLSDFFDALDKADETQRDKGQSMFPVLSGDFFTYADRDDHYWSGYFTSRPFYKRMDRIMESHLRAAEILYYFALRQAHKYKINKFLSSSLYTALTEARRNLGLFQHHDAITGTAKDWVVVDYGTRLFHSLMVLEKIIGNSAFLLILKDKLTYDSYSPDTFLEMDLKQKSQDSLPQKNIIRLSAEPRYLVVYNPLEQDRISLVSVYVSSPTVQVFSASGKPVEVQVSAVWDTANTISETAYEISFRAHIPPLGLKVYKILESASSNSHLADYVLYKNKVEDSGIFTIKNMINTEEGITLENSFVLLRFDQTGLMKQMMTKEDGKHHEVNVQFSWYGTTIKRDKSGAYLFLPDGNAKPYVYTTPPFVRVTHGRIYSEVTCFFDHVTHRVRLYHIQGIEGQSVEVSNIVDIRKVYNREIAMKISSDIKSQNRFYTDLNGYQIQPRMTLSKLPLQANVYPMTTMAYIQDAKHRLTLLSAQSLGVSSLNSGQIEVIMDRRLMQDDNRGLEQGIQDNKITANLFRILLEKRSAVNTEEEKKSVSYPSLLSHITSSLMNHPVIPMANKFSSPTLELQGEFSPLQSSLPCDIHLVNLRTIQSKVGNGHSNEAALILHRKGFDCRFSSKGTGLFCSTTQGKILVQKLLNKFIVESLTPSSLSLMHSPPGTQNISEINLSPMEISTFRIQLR
UniProt Q9P2J3: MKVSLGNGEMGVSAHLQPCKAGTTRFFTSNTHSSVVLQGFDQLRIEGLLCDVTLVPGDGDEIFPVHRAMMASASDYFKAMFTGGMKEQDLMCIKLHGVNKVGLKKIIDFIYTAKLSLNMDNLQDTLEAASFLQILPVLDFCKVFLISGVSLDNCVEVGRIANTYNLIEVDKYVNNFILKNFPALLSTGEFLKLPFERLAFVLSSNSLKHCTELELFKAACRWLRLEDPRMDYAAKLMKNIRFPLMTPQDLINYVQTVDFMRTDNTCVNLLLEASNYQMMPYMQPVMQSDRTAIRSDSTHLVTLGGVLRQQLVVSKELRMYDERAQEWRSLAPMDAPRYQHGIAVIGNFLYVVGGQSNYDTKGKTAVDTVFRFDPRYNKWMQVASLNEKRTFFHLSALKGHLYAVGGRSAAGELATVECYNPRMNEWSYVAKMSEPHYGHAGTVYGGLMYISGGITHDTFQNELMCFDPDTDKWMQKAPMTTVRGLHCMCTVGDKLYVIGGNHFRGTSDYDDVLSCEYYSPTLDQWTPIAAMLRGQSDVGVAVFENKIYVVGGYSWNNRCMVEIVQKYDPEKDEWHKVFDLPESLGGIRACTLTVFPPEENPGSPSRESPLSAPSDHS

compound: COc1ccc(Cn2ccc3ccc(C(=O)NO)cc32)cc1; test: dose-dependent thermal stabilisation call (2D-TPP, DLPTP, 10% FDR) (binary (1 = stabilised)); higher = stabilised by the compound; settings: system: HL-60 intact cells; concentration range 0.04-10 µM

Row | Target | dose-dependent thermal stabilisation call
1 | LLGL1 (UniProt Q15334) | inactive: 0
2 | LPCAT1 (UniProt Q8NF37) | inactive: 0
3 | LONP1 (UniProt P36776) | inactive: 0
4 | M6PR (UniProt P20645) | inactive: 0
5 | LAT2 (UniProt Q9GZY6) | inactive: 0
6 | LGALS1 (UniProt P09382) | inactive: 0
7 | KIAA1712 (UniProt Q9C0F1) | inactive: 0
8 | KIF20B (UniProt Q96Q89) | inactive: 0
9 | LMBRD1 (UniProt Q9NUN5) | inactive: 0
10 | LOC100133930 | inactive: 0
11 | LACTB (UniProt P83111) | inactive: 0
12 | LIMD1 (UniProt Q9UGP4) | inactive: 0
13 | LIN9 (UniProt Q5TKA1) | inactive: 0
14 | LSD1 (UniProt O60341) | inactive: 0
15 | KIAA1012 (UniProt Q9Y2L5) | inactive: 0
16 | MAML1 (UniProt Q92585) | inactive: 0
17 | LATS1 (UniProt O95835) | inactive: 0
18 | LOC152217 | inactive: 0
19 | LRRC14 (UniProt Q15048) | inactive: 0
20 | MAN2A1 (UniProt Q16706) | inactive: 0
21 | LUC7L2 (UniProt Q9Y383) | inactive: 0
22 | LMF2 (UniProt Q9BU23) | inactive: 0
23 | LMNB2 (UniProt Q03252) | inactive: 0
24 | LPXN (UniProt O60711) | inactive: 0
25 | LANCL1 (UniProt O43813) | inactive: 0
26 | KLHL9 (UniProt Q9P2J3) | inactive: 0
27 | MAN1B1 (UniProt Q9UKM7) | inactive: 0

Shown tab-delimited: part of the list above.
Row	Target	dose-dependent thermal stabilisation call
19	LRRC14 (UniProt Q15048)	inactive: 0
20	MAN2A1 (UniProt Q16706)	inactive: 0
